According to paper PMC5800818:
No constants are given. Whether binding was seen depends on the method and setting. Binding seen in cells or lysates may run through a third protein. Some entries that bind do so weakly or less than the wild type. Where a sequence is shown, tags or fusion partners need not be part of it.

Amino acid sequences for entries named in this document (tags omitted). A change or cut given only in a name is not applied to a line headed by its entry. Chains listed by the source or under a name are the forms on record and can include a tag or linker.
Mdm2, expressed in cells (Q00987-11, form named): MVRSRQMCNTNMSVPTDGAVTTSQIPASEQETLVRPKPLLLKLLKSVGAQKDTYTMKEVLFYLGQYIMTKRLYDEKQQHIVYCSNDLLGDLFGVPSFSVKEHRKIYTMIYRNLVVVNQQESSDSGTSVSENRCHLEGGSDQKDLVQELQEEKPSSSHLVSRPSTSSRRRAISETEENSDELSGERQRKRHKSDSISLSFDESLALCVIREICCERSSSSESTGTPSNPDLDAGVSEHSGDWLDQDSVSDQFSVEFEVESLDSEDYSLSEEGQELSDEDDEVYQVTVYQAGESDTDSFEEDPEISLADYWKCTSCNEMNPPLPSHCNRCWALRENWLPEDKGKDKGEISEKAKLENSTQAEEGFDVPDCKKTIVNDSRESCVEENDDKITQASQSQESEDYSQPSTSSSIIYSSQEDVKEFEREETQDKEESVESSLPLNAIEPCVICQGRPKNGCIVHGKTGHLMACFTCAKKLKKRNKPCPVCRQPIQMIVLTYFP
Mdm2-mut (F255A-Y282A-Y287A mutant) (Q00987-11, form named): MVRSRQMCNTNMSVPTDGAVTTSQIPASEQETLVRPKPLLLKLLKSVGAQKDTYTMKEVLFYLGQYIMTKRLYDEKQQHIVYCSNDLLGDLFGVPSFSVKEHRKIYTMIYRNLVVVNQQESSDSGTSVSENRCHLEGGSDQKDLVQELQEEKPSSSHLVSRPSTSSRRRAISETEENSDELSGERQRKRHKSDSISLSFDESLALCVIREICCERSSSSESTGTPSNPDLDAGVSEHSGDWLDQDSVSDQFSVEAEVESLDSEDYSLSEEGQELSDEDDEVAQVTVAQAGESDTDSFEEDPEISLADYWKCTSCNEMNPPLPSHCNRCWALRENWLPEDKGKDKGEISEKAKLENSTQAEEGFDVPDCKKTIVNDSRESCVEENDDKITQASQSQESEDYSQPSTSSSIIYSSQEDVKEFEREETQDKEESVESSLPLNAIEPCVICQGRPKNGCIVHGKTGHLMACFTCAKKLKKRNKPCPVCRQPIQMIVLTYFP

Assays:
Test in all cases: co-IP; HEK293 cells cotransfected with Mdm2 constructs and FLAG-tagged Numb constructs; anti-FLAG IP, immunoblot; in Fig. 1 A with siRNA against p53 or control oligonucleotides
[1] = biological target: T1, FLAG-tagged Numb isoform-2 (human) (UniProt P49757)
T1 sequence: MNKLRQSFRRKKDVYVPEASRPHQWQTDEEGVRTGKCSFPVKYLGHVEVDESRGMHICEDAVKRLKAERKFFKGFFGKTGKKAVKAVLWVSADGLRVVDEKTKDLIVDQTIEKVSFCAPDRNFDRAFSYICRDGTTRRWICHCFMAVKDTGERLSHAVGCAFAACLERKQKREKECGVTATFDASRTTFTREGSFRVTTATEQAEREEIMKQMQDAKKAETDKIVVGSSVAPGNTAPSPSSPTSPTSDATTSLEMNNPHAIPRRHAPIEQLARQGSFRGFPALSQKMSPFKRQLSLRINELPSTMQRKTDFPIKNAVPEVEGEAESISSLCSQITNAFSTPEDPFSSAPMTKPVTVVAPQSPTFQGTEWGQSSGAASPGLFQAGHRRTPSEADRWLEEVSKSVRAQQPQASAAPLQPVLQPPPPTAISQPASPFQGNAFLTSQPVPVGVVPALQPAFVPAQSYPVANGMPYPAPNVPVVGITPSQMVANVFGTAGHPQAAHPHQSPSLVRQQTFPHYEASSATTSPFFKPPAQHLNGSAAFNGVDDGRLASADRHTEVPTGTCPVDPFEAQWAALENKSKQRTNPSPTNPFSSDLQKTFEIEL

[2] = biological target: T2, FLAG-tagged Numb isoform-3 (full length) (human) (UniProt P49757)
T2 sequence: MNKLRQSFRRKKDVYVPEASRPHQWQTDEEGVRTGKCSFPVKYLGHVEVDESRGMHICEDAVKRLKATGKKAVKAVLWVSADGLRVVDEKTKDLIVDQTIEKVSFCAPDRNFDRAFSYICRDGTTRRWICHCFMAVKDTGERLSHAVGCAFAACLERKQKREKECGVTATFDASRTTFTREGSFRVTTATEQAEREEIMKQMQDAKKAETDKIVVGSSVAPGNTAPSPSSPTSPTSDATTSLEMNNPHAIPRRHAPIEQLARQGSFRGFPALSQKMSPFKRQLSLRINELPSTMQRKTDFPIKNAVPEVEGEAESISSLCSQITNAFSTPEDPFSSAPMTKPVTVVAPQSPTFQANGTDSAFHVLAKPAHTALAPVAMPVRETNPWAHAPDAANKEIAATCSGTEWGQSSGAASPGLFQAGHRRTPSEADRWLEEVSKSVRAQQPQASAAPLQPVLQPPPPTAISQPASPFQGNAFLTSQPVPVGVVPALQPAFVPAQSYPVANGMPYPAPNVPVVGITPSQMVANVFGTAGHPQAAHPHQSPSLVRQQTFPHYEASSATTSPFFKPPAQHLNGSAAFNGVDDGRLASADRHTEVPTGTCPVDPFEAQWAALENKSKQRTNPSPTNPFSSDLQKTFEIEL

[3] = biological target: T3, FLAG–Numb-1 (human Numb isoform-1, full length) (human) (UniProt P49757)
T3 sequence: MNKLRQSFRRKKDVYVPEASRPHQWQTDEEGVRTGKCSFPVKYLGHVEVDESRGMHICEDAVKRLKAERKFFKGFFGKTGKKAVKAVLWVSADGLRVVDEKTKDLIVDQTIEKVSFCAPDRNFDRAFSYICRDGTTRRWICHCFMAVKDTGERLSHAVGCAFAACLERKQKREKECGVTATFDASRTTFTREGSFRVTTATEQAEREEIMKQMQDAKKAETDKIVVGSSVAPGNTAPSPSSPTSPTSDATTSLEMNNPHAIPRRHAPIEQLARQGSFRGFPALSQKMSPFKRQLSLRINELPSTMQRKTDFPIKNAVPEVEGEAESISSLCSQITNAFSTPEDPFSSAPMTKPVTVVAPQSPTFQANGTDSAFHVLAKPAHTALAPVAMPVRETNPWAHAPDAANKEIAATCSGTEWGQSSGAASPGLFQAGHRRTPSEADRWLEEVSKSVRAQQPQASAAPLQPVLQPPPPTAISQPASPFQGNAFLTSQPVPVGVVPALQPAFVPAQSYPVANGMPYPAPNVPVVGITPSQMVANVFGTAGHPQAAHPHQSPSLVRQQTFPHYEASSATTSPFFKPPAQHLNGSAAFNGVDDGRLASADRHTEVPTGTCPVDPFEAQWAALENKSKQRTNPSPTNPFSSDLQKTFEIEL

binding [1]	binding [2]	binding [3]	Substance
binds	binds	binds	Mdm2, expressed in cells (from UniProt Q00987-11 1-497)
–	–	binds	Mdm2-mut (F255A-Y282A-Y287A mutant) (from UniProt Q00987-11 1-497)
